Laboratory results reported in patent publication US20250129143A1.
Results are given in words; binding and its absence hold for the method and conditions named. Some entries that bind do so weakly or less than the wild type. Where a sequence is shown, tags or fusion partners need not be part of it.

Target: biotinylated ubiquitin (human-derived ubiquitin with C-terminal Cys residue and 6xHis tag, biotin on the Cys) (human) (UniProt P0CG48)
Experiment: BLI

B1: anti-ubiquitin monobody clone E, Monobody-Nus tag-His6 recombinant protein (designed binder, not shown: small tags and cut ends)
chain: LEVVEASPTSIQISWDANIYSVGQGEYVRYYRITYGETGGNSPVQEFTVPGSKSTATISGLKPGVDYTITVYAVTEYSYMYWGWPPISINYRTHHHHHH
With B1 the binding was “binds”.

B2: anti-ubiquitin monobody clone A, Monobody-Nus tag-His6 recombinant protein (designed binder, not shown: small tags and cut ends)
chain: LEVVEASPTSIQISWDAYPYYIIGETVRYYRITYGETGGNSPVQEFTVPGSKSTATISGLKPGVDYTITVYAVTYYGNAFWGWPPISINYRTHHHHHH
In the case of B2, the binding is reported as “binds”.
